The list shows a part of the results.
target: OsWRKY34 (Oryza sativa, UniProt Q0JBA9 1-250); assay: protein-binding microarray (RPBM); PBS, 2% BSA, 51.3 ng/ul salmon testes DNA, 50 uM zinc acetate, 200 nM TF, 25 C, 1 h; high values mean tight binding; conditions: protein: recombinant; tags: N-terminal polyhistidine and DsRed monomer fusion (pET32a); label: CyDye5-dUTP incorporated in the synthesized complementary strand; 3' TTTTT single-stranded linker to array surface; dsDNA, one strand shown
How it was run: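 The binding signal is fluorescence intensity per array feature (arbitrary units). Readings came from an Axon 4000B scanner after a washed, 2% BSA-blocked, double-stranded custom Agilent array had been incubated for 1 h at 25 °C with 200 nM protein and 50 µM zinc acetate. The protein was a Ni–NTA-purified transcription factor fused N-terminally to polyhistidine and DsRed, expressed in E. coli BL21-CodonPlus.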

Sequences of proteins named here, by UniProt entry; tags and fusion partners are left off.
UniProt Q0JBA9, entry or part of it: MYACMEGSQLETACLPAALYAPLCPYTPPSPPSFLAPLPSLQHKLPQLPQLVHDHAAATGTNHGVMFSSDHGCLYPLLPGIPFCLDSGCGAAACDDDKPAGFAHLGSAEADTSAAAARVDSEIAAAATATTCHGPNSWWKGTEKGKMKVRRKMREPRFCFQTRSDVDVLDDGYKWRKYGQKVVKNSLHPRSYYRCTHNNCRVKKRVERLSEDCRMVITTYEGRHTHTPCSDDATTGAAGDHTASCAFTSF

Sequence | binding signal
ATACCGCTTGAGTTCATTTTGCCCCTGTTGACTGTTGTTCCGGAGTCACCTAGTGCAG | 9710 fluorescence intensity (a.u.)
TACTGCCAAGGGATCTCGTTTGTCCGGTTTTCGTAAGTTGCGGAGTCACCTAGTGCAG | 8320 fluorescence intensity (a.u.)
AGTACACACCATTTGACATCCTGATTATGTATAGTAATTTCGGAGTCACCTAGTGCAG | 8350 fluorescence intensity (a.u.)
ATGTTTGCCACCGTCGCCCTACCGCTGCTAGCTGCCGCCCCGGAGTCACCTAGTGCAG | 11400 fluorescence intensity (a.u.)
CGTCGCTTCGGTCTCGACTCCTCGTCTCCTCGGCCGCCGCCGGAGTCACCTAGTGCAG | 8150 fluorescence intensity (a.u.)
CTCCAGTGCCTCGATTGACTCCAGTATTAATGCTGCGAAGCGGAGTCACCTAGTGCAG | 9380 fluorescence intensity (a.u.)
CCCTTTCGGTTTTAATTTTTCGGACCGTTTTGTACATACACGGAGTCACCTAGTGCAG | 10300 fluorescence intensity (a.u.)
GAAAGGCCCTGCTGCGTGACCCGGCAACTCTGGTAGAACCCGGAGTCACCTAGTGCAG | 8070 fluorescence intensity (a.u.)
TCTTCCACTTTCGCGTGATCTCATATTCTTGCAAACTTTACGGAGTCACCTAGTGCAG | 13800 fluorescence intensity (a.u.)
TCACACTGCTCCACAGCCATCCATCCCTCCGCCGCCGCCGCGGAGTCACCTAGTGCAG | 9780 fluorescence intensity (a.u.)
CTACCAATCTGTAGCCCGCTGTTCTTTTCTCTCCTTATTTCGGAGTCACCTAGTGCAG | 12200 fluorescence intensity (a.u.)
TTGGTTCGGTTTTTTCTGCCCGCGTCGGTTTTTGTCTCACCGGAGTCACCTAGTGCAG | 20100 fluorescence intensity (a.u.)
ATTTTTTGGGGCCACTCCTTTTCCATCGCGCTAACTCCCGCGGAGTCACCTAGTGCAG | 8250 fluorescence intensity (a.u.)
GCTTTCCATTCTGATTTTGTCCTTTTCACCTACCAAAACGCGGAGTCACCTAGTGCAG | 8260 fluorescence intensity (a.u.)
ACCCGTTTGGATCGCACTGACTCGCTGACCATCACTGTGACGGAGTCACCTAGTGCAG | 9110 fluorescence intensity (a.u.)
GATGTTCTTGGATGATTATTATGTGATTTTGTGTTGATTGCGGAGTCACCTAGTGCAG | 9010 fluorescence intensity (a.u.)
ACCATCACTTTTACTCTCTTTCTGCCTTAAAATCTCAATACGGAGTCACCTAGTGCAG | 8590 fluorescence intensity (a.u.)
TGCTGTTCTTGTACTTGTACAGTTTGGATTGTGGTTTTATCGGAGTCACCTAGTGCAG | 10400 fluorescence intensity (a.u.)
GTCGCCCTGAATTTCACCTGCATCCGCCCGCTTGTGACGTCGGAGTCACCTAGTGCAG | 10100 fluorescence intensity (a.u.)
GGGAGGGCAACTGAAGAGGAGTGGCGAGGGAGGGCTTTTGCGGAGTCACCTAGTGCAG | 12200 fluorescence intensity (a.u.)
ACGGCACTATATAAACCCATCTTAACGACACCTGATTAGCCGGAGTCACCTAGTGCAG | 9100 fluorescence intensity (a.u.)
ATCTCTCTCTCTCTCTCTCTCTCTCTCCGTGTCGTCGGGCCGGAGTCACCTAGTGCAG | 8430 fluorescence intensity (a.u.)
ATATCTCTATTCTATGCATTAGTCATACATGATTTTGAATCGGAGTCACCTAGTGCAG | 8370 fluorescence intensity (a.u.)
TTTCAGGTCGACTTCCCCAGCTTGAACCTGACTTGAATCACGGAGTCACCTAGTGCAG | 8780 fluorescence intensity (a.u.)
CGCCTCCGATCCCACAGTCTCTCTCTCTCTCTCTCTCTCTCGGAGTCACCTAGTGCAG | 8350 fluorescence intensity (a.u.)
CCCCGGCGCCCCGCTTCTACCCTCTCCCGGCGACGCCTTGCGGAGTCACCTAGTGCAG | 9420 fluorescence intensity (a.u.)
GGGTTGGTCCGCGTTCTTGCCTCCTGGTTGGCCGATGTTTCGGAGTCACCTAGTGCAG | 15700 fluorescence intensity (a.u.)

Sequence | binding signal
AAATATCCTGGCCTTAAAATTTCTGCTCTTTTGCTTTGTCCGGAGTCACCTAGTGCAG | 8620 fluorescence intensity (a.u.)
CCCGCCCGAGCACCGGCGGCCCTTCGTTTCTCCGGCACCTCGGAGTCACCTAGTGCAG | 8770 fluorescence intensity (a.u.)
ATGGAATTTTGTCTTCCCTAATCGGACGGCTACTCGCGTCCGGAGTCACCTAGTGCAG | 8090 fluorescence intensity (a.u.)
CAACCCATGAAACCAAAATACTCCGAGGCCCGTTTATTACCGGAGTCACCTAGTGCAG | 8660 fluorescence intensity (a.u.)
GGAAGCAGCCATCCTCTGCCATTTGCTCGCATGTTGAACGCGGAGTCACCTAGTGCAG | 9180 fluorescence intensity (a.u.)
GAACTCTCAAGTCTCGAGCCTCATGTTTTTTCCTCTCCACCGGAGTCACCTAGTGCAG | 10800 fluorescence intensity (a.u.)
CCTTCTCTTCGCGTGATCTTTCTTCGCACGCAGTTGGCACCGGAGTCACCTAGTGCAG | 10200 fluorescence intensity (a.u.)
ACATGCTATACATCCCAACGGTAACCTCGTTCTCATCATACGGAGTCACCTAGTGCAG | 10600 fluorescence intensity (a.u.)
GACACGTACGCCCGCATCCGCGCCAGCTCCGACCGCAGCGCGGAGTCACCTAGTGCAG | 8220 fluorescence intensity (a.u.)
GGTATTAGTGGTTGGGTGCTTTACGCTGCTCGCTGGATCTCGGAGTCACCTAGTGCAG | 11900 fluorescence intensity (a.u.)
AGCGGCACCCTGGCTTTCCCGTCAGGCACAACCCTTTTTACGGAGTCACCTAGTGCAG | 8660 fluorescence intensity (a.u.)
AGCTGCCGGCTGGTGTGCACAATGGCTGTTTGTTCCTTGACGGAGTCACCTAGTGCAG | 8070 fluorescence intensity (a.u.)
TTCGTCGTCCACCACCGTTCGACGAGTTTCTCGCAGATCGCGGAGTCACCTAGTGCAG | 8100 fluorescence intensity (a.u.)
CTTTTTGGTTGGATATTTGCTTGCAAACTCTATATGTTTTCGGAGTCACCTAGTGCAG | 11200 fluorescence intensity (a.u.)
GGACCGACCCTTTTATTTGTCCATCCATAATAATTCCGCGCGGAGTCACCTAGTGCAG | 9300 fluorescence intensity (a.u.)
TTTTAGATTTTAATTTCTTCTTCATCTCTTTCATTCATTTCGGAGTCACCTAGTGCAG | 8570 fluorescence intensity (a.u.)
GCGCCGGCTGATCCGGAACCCCAACACGTACGCCAGCCTCCGGAGTCACCTAGTGCAG | 9980 fluorescence intensity (a.u.)
AGTGTCAAGCTAGCTCTACACATTGTACAACCACACTACACGGAGTCACCTAGTGCAG | 8510 fluorescence intensity (a.u.)
AACGCCGCCACCACCACCGCCGCCGCCTCCTGAATAGATTCGGAGTCACCTAGTGCAG | 9170 fluorescence intensity (a.u.)
CCTGTTCTCTTCTTCTATACATGCAAGCAAAAAATTCGAACGGAGTCACCTAGTGCAG | 9810 fluorescence intensity (a.u.)
TGTTCCAGTGTGGCAACTAGCACTTCCCACGTCCTTGCCACGGAGTCACCTAGTGCAG | 8030 fluorescence intensity (a.u.)
CTTTGAGTCGTCTCTCTCATTCAACTCGTACATTTTTTCTCGGAGTCACCTAGTGCAG | 9930 fluorescence intensity (a.u.)
GCGTTGGATTTGATTGGGCCTCACCGAAATTTCGGTCCGACGGAGTCACCTAGTGCAG | 8880 fluorescence intensity (a.u.)
AGCCGCAGCCCGCCACTCGCCTCCGCCCTCCGCGCGCGCGCGGAGTCACCTAGTGCAG | 9950 fluorescence intensity (a.u.)
GGCGGCCGGAGCGGCGCGACTTCCCATCTAACATATTGCTCGGAGTCACCTAGTGCAG | 8130 fluorescence intensity (a.u.)
TCCGATCCATCCATCCCTACCGTCCATCATCGGGCCACCACGGAGTCACCTAGTGCAG | 12300 fluorescence intensity (a.u.)
AAAATATTGTATATTCTTGGTTTGTGTCTATAACTCTCTTCGGAGTCACCTAGTGCAG | 8480 fluorescence intensity (a.u.)

As entered above:
Entry for AGCGGCACCCTGGCTTTCCCGTCAGGCACAACCCTTTTTACGGAGTCACCTAGTGCAG under binding signal: 8660 fluorescence intensity (a.u.)
Entry for CGCCTCCGATCCCACAGTCTCTCTCTCTCTCTCTCTCTCTCGGAGTCACCTAGTGCAG under binding signal: 8350 fluorescence intensity (a.u.)
Entry for GACACGTACGCCCGCATCCGCGCCAGCTCCGACCGCAGCGCGGAGTCACCTAGTGCAG under binding signal: 8220 fluorescence intensity (a.u.)
Entry for ATGGAATTTTGTCTTCCCTAATCGGACGGCTACTCGCGTCCGGAGTCACCTAGTGCAG under binding signal: 8090 fluorescence intensity (a.u.)

From publication PMC7819943, “Rice protein-binding microarrays: a tool to detect cis-acting elements near promoter regions in rice”
